Reference: paper PMC5871759
No constants are given. Whether binding was seen depends on the method and setting. Binding seen in cells or lysates may run through a third protein.

Protein sequences, listed by entry. Tags and fused reporters are not part of them. Lines headed by an entry give the natural chain unless they say otherwise; changes in a name come on top.
UniProt Q8IZD2: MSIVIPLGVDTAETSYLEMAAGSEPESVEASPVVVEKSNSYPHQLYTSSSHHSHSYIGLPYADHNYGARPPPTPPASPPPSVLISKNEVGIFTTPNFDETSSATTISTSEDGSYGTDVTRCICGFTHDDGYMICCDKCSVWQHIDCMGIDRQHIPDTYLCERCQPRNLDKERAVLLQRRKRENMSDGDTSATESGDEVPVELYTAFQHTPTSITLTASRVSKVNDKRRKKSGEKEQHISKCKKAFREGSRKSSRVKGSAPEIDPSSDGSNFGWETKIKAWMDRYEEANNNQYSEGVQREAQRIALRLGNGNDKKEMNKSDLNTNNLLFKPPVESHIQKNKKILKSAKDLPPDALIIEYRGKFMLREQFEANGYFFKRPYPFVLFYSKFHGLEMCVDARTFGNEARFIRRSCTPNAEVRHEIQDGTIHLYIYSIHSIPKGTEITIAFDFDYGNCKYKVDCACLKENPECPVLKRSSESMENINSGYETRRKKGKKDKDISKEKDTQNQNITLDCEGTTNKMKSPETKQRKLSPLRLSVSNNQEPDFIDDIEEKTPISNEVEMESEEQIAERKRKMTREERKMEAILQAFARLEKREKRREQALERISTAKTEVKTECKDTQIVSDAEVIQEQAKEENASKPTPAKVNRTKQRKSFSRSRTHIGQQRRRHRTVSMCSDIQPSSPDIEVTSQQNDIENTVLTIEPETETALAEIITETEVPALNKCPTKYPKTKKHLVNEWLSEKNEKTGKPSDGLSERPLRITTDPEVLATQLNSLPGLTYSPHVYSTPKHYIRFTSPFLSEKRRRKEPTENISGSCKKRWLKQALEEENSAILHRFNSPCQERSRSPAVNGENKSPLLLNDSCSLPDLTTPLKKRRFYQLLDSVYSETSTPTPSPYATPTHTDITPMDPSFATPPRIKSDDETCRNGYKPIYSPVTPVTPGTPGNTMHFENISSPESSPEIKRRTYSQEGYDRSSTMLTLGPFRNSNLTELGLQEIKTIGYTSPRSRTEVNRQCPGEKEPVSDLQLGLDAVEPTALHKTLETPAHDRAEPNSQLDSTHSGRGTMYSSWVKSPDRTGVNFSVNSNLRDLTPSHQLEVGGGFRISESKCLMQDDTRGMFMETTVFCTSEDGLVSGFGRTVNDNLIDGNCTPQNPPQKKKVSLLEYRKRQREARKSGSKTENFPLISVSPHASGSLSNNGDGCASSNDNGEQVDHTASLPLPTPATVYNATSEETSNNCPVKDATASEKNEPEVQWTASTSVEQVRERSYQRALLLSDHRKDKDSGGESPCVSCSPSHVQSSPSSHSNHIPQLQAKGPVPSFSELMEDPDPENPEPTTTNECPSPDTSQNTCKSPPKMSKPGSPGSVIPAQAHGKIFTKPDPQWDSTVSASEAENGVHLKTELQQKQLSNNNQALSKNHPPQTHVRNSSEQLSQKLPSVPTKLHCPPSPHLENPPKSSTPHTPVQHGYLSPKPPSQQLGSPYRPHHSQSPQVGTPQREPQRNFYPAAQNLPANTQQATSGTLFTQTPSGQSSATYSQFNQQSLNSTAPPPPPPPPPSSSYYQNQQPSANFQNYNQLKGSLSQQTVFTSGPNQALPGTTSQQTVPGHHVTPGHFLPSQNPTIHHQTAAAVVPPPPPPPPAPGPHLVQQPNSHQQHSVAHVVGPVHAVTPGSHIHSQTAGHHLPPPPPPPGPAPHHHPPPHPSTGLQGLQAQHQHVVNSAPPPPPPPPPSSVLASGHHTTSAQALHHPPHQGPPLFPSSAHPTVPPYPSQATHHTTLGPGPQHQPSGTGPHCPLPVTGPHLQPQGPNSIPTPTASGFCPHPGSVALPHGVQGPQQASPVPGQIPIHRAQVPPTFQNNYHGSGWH
UniProt O95786: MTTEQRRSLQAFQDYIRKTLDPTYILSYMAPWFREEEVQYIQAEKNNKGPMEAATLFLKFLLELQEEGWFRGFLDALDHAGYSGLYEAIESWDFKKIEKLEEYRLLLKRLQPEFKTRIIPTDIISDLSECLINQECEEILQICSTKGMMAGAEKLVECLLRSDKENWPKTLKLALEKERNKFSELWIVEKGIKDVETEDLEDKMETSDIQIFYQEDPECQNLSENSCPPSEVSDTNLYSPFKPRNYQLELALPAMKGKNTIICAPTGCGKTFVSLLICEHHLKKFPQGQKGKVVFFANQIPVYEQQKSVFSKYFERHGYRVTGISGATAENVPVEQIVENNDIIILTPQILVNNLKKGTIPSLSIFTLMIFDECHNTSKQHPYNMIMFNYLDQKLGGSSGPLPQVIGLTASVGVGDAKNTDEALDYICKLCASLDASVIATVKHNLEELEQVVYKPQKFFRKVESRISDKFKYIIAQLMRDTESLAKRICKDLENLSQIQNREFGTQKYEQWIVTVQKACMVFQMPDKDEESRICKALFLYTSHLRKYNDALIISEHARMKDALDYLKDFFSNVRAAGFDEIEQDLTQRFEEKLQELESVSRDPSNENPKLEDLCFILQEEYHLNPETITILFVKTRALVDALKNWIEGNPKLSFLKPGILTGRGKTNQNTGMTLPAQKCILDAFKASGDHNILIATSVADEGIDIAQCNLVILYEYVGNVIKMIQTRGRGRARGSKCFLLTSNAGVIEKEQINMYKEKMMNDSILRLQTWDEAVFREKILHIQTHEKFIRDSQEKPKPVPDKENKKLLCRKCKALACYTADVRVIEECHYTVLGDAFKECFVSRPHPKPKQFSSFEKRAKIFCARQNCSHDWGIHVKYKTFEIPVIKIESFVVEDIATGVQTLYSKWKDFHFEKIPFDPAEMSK

Molecular target: truncated MLL5 mutant lacking the SET domain (MLL5-FLAG truncated vector) (human) (UniProt Q8IZD2)
Experiment: co-IP; HEK293T cotransfected with tagged plasmids, whole-cell extracts 48 h after transfection; lysis buffer 1% NP-40, 20 mM HEPES, 20 mM KCl, 150 mM NaCl, 5 mM EDTA, pH 7.4; Protein-G Sepharose with anti-FLAG or anti-V5, 4 °C; in Fig. 6b also with MLL5-HA plasmid (0, 1000, 3000 ng)

binding: no binding
Substance: RIG-I-HA (from UniProt O95786 1-925)
